The other results are listed elsewhere or left out.

Chains of the proteins cited; added tags and fusions are not shown. Lines headed by an entry give the natural chain unless they say otherwise; changes in a name come on top.
UniProt Q6N063: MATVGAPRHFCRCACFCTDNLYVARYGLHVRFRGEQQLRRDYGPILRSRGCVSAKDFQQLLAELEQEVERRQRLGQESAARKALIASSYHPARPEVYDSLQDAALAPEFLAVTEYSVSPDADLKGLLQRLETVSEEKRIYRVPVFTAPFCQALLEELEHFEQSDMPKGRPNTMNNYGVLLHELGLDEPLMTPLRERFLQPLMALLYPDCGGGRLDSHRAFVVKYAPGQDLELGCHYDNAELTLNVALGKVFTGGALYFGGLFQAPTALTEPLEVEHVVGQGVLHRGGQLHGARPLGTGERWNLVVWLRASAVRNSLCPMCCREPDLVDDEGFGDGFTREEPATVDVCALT
UniProt P47900: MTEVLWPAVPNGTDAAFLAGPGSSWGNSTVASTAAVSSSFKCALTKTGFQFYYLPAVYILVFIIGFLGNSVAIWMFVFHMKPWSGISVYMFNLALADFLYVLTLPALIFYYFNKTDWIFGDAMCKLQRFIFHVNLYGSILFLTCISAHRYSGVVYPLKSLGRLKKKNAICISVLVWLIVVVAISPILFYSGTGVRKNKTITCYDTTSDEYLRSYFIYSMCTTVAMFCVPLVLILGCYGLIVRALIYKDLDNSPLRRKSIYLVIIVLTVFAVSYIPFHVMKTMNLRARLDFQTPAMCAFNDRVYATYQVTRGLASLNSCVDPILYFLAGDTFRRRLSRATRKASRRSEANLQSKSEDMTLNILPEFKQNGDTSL
UniProt Q5BJF6: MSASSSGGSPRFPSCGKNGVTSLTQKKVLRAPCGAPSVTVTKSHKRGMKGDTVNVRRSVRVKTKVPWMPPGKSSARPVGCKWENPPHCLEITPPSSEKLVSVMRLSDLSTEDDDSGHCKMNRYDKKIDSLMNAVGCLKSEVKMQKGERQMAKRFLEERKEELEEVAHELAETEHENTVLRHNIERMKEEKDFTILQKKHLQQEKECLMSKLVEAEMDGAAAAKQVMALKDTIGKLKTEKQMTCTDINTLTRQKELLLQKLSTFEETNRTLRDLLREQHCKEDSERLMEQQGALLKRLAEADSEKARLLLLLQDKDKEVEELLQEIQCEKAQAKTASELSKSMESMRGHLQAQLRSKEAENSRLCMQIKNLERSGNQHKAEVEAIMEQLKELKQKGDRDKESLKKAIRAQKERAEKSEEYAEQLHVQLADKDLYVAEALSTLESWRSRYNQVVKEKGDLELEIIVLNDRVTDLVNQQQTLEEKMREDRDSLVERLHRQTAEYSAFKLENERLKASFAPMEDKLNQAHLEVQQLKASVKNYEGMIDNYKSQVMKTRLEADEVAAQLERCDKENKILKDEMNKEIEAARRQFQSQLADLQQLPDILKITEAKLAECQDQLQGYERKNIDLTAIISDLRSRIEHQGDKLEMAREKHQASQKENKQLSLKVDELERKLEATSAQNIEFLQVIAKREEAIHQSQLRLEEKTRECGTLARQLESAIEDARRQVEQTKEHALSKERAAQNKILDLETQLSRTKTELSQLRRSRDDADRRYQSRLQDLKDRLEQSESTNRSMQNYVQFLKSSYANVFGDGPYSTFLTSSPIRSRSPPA
UniProt P0C024: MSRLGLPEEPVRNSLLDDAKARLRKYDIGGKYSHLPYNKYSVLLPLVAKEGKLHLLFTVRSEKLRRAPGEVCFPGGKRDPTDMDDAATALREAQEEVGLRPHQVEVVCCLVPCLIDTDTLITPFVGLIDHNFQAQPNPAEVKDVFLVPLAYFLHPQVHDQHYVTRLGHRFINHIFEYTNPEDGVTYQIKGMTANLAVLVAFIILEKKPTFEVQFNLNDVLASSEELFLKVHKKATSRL
UniProt Q9P0S3: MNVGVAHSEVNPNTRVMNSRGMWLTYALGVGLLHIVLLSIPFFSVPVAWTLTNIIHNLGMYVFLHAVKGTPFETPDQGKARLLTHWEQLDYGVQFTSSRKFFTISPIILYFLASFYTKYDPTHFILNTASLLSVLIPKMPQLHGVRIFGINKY
UniProt Q8N573: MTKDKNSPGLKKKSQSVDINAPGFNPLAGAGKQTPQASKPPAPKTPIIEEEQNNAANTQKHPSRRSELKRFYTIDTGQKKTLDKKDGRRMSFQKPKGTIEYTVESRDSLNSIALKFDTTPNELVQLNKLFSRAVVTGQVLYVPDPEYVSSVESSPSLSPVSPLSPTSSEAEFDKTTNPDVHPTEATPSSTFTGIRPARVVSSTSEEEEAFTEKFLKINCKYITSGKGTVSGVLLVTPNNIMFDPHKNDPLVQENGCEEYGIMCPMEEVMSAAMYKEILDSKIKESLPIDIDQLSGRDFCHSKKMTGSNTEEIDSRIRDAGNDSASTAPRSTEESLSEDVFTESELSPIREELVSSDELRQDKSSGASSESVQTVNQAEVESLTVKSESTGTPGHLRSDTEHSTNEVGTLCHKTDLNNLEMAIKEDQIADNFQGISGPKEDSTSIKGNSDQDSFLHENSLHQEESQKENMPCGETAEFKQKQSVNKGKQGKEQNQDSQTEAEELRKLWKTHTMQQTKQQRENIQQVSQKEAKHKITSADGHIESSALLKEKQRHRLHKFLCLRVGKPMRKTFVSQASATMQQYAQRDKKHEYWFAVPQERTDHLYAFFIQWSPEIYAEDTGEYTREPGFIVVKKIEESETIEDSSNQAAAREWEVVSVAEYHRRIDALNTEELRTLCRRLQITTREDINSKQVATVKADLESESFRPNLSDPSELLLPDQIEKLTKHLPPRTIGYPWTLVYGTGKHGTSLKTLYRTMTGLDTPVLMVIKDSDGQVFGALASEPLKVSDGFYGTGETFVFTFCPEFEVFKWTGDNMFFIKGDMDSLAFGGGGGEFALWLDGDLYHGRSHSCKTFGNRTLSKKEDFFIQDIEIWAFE
UniProt Q9Y5N6: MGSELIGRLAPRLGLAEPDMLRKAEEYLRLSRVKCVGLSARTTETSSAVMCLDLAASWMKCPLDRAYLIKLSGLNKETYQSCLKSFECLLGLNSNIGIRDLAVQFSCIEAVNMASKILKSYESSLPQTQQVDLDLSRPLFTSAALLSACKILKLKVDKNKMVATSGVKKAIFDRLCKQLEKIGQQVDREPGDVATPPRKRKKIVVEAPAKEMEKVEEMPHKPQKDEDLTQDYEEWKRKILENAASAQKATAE
UniProt Q8IVL6: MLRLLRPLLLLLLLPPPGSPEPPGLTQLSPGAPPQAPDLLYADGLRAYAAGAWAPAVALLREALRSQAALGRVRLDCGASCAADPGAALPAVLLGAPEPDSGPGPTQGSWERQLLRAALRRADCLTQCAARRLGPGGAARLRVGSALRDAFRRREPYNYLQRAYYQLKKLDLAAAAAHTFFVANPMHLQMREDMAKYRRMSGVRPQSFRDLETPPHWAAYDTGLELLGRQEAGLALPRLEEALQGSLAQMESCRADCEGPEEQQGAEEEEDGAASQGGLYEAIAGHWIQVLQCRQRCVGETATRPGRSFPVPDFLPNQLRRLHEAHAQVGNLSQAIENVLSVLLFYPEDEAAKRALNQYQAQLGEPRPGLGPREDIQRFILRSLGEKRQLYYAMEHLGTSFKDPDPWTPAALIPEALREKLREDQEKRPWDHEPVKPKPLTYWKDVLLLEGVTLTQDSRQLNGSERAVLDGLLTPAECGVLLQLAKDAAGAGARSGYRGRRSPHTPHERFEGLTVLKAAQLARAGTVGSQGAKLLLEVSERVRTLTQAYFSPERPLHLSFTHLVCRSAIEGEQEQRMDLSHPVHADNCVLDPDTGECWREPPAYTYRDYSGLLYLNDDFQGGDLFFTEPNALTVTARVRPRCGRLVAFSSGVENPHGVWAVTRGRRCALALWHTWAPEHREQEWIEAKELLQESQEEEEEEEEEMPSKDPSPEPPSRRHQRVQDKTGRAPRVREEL
UniProt Q96D31, whole entry, looked up: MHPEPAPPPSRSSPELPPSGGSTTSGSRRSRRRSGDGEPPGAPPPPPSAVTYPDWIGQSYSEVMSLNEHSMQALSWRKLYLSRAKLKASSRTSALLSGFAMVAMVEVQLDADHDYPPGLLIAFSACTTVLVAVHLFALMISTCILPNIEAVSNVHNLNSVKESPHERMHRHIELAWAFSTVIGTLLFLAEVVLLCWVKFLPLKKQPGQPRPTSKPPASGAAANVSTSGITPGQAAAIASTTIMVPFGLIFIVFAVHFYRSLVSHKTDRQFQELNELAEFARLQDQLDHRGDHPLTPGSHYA
UniProt Q9BZD4: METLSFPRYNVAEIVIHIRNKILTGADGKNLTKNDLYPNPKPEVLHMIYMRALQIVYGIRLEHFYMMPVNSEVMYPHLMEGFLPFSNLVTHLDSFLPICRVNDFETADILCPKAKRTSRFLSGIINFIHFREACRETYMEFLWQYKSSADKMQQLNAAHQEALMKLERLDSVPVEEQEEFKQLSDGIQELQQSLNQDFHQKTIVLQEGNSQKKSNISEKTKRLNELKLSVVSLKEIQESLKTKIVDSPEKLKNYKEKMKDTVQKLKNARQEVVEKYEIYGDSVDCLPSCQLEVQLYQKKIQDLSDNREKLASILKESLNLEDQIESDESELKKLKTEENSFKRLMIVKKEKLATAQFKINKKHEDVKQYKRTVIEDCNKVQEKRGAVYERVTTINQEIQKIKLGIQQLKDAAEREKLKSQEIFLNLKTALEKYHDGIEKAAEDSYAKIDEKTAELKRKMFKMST
UniProt Q13416: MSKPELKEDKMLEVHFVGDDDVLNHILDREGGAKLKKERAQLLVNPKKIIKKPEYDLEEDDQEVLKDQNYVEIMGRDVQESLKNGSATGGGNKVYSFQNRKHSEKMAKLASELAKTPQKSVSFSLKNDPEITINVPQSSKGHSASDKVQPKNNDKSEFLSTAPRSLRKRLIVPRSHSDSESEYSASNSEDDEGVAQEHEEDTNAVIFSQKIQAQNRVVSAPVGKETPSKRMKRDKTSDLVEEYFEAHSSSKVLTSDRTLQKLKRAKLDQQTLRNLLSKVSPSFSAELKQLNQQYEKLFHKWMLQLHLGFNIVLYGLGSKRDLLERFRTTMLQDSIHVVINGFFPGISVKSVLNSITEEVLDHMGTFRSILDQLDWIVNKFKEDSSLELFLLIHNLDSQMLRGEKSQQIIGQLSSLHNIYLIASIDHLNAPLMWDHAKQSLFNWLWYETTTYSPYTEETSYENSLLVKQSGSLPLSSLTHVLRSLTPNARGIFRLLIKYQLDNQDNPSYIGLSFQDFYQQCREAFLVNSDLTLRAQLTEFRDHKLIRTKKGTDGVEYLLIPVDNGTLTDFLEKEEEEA
UniProt O15460: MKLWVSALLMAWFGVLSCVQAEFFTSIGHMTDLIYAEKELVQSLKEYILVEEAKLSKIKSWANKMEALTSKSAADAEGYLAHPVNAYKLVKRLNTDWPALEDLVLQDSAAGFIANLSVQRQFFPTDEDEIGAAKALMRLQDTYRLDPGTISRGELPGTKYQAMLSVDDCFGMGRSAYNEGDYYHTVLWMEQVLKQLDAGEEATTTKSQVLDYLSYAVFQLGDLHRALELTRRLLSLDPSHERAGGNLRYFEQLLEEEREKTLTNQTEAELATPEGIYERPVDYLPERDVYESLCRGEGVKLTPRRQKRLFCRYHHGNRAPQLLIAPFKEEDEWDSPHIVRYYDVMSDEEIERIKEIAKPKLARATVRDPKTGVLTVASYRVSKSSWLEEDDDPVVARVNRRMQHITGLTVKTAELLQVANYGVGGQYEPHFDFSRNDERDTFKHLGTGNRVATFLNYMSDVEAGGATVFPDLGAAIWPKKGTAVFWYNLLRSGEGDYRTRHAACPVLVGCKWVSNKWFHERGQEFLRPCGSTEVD
UniProt P53370: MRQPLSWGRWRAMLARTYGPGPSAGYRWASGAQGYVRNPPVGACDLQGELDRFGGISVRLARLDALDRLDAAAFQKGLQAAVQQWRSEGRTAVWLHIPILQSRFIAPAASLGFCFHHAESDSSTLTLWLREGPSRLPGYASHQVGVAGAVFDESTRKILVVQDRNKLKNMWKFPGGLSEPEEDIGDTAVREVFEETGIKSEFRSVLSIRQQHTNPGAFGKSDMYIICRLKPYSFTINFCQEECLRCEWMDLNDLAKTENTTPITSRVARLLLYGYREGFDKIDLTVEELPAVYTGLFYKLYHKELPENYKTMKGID

Compound in the assay: O=C1NC(=O)C(c2cnc3ccccn23)=C1c1cn2c3c(cc(F)cc13)CN(C(=O)N1CCCCC1)CC2
Kind of assay: log2 fold change, soluble protein after heating vs DMSO (PISA); higher = thermal stabilisation; K562 cells, 10 uM, 30 min; active = over 0.2 and 3.5 SD of the protein, either way, in both replicates (recomputed). The essentials: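 Aliquots of K562 cells (2×10^6 cells/mL) treated with 10 μM compound for 30 min were heated for 3 min over 48°C-58°C. After pooling and extraction in PBS with 0.5% NP-40 at 4°C, soluble protein from a 21,000xg, 90 min spin was quantified by TMTpro 16plex LC-MS/MS with channel sums equalised. Thermal stability is expressed against control samples, from duplicates, as a log2 fold change.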
Regarding OGFOD2 (UniProt Q6N063), the log2 fold change was inactive: -0.073.

As to P2RY1 (UniProt P47900), the log2 fold change is inactive: 0.247.

In the case of ODF2 (UniProt Q5BJF6), the log2 fold change was inactive: 0.314.

Turning to NSUN7 (UniProt Q8NE18), the log2 fold change is inactive: -0.084.

With NUDT7 (UniProt P0C024), the log2 fold change was inactive: 0.12.

Turning to ORMDL1 (UniProt Q9P0S3), the log2 fold change was inactive: -0.009.

In the case of OXR1 isoform 2 (UniProt Q8N573), the log2 fold change was inactive: -0.096.

On to ORC6 (UniProt Q9Y5N6), for which the log2 fold change was inactive: 0.031.

With P3H3 (UniProt Q8IVL6), the log2 fold change was inactive: 0.038.

On to ORAI1 (UniProt Q96D31), for which the log2 fold change is inactive: -0.024.

Regarding NUF2 (UniProt Q9BZD4), the log2 fold change is inactive: 0.183.

Turning to ORC2 (UniProt Q13416), the log2 fold change is inactive: -0.058.

Take P4HA2 (UniProt O15460): the log2 fold change was inactive: 0.201.

With NUDT6 (UniProt P53370), the log2 fold change was inactive: -0.097.
